{
  "sequences": {"note": "By UniProt entry, the sequences of proteins in these tests, tags left out. Residues count along the entry.", "UniProt Q15116, residues 25-288": "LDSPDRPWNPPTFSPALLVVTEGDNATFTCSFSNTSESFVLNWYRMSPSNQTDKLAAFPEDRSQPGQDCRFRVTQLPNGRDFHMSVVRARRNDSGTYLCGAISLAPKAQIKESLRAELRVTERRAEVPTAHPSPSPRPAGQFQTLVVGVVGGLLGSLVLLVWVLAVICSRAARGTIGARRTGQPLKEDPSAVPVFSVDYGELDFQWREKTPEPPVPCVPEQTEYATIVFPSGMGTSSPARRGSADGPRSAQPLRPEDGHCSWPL"},
  "source": "paper PMC8165482",
  "target": "T1, CD68 (human (endogenous in THP-1)) (UniProt P34810)",
  "T1 sequence": "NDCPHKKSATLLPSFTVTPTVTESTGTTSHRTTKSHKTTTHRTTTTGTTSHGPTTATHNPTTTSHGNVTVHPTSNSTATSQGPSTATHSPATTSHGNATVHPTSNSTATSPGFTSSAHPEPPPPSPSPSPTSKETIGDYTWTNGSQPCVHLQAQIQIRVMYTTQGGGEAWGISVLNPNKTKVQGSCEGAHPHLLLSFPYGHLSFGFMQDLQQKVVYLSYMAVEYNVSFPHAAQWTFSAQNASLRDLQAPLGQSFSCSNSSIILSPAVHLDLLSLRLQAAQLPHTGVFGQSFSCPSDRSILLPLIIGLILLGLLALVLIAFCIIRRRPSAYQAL",
  "experiment": "co-IP; THP-1 derived macrophages lysed in RIPA buffer, lysate pre-cleared with protein A/G-agarose; anti-CD68 antibody overnight at 4°C, protein A/G agarose beads 4 h at 4°C, 6 washes; immunoblotting",
  "note": "These are yes or no findings as the source states them, for the method shown. In cells and extracts the contact can be indirect. Some binding calls cover weakened binding; strength is not graded here.",
  "data": [
    {"substance": "programmed cell death protein 1 (PD-1) (from UniProt Q15116 25-288) (receptor)", "values": [
      {"measurement": "binding", "result": "binds"}
    ]}
  ]
}
